Results deposited as PubChem BioAssay AID1224828 (NIAID, 2016)
Here is an unselected part of about 17,000 deposited reagents. In the full data, 762 (4.5%) are marked active. 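Active calls include both raised and lowered p65 entry, mostly lowered; wells with fewer than 50 cells lack a z-score.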 Raw values vary from plate to plate and are shown uncorrected.

Test: 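Find genes required for NF-kappaB p65 moving into the nucleus after LPS in mouse macrophages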 (primary screen)
Cells: mouse RAW264.7 G9 macrophage reporter cells (GFP-p65, Tnf promoter-mCherry)
Knock-down reagent: siRNA pool against mouse genes, 100 nM
Timing: 2 days siRNA transfection, then 40 min LPS before fixation
Treatment: LPS (Salmonella minnesota R595) at 10 ng/ml
Measurement: 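Microscopy ratio of nuclear to perinuclear-ring GFP-p65 signal, scaled to the plate median; gene score is the average of two replicate robust z-scores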
Direction: p65 translocation robust z-score: higher = more nuclear NF-kappaB p65 after LPS than the plate median; nuclear/cytoplasmic p65 ratio: higher = more nuclear NF-kappaB p65
Hit rule: 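Active if robust z is above 3.3 (negative regulators) or below -1.56, the Tlr4 control median (positive regulators); activity score 50 or more; control wells not called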
Calls: active = hit (p65 shift raised or lowered); inactive = no clear change

Which result is listed for Pdzd7?
p65 translocation robust z-score: 0.91; nuclear/cytoplasmic p65 ratio, rep 1: 1.55; nuclear/cytoplasmic p65 ratio, rep 2: 1.68; low cell count flag: enough cells to score; call: inactive

How did the screen score Fastkd1?
p65 translocation robust z-score: 0.52; nuclear/cytoplasmic p65 ratio, rep 1: 1.46; nuclear/cytoplasmic p65 ratio, rep 2: 1.5; low cell count flag: enough cells to score; call: inactive

Which result is listed for Per2?
p65 translocation robust z-score: -0.26; nuclear/cytoplasmic p65 ratio, rep 1: 1.41; nuclear/cytoplasmic p65 ratio, rep 2: 1.38; low cell count flag: enough cells to score; call: inactive

What is on record for Oga?
p65 translocation robust z-score: 0.94; nuclear/cytoplasmic p65 ratio, rep 1: 1.52; nuclear/cytoplasmic p65 ratio, rep 2: 1.51; low cell count flag: enough cells to score; call: inactive

What did the screen give for BC023105?
p65 translocation robust z-score: 0.82; nuclear/cytoplasmic p65 ratio, rep 1: 1.71; nuclear/cytoplasmic p65 ratio, rep 2: 1.97; low cell count flag: enough cells to score; call: inactive

With Actl7a, how do the results read?
p65 translocation robust z-score: -0.62; nuclear/cytoplasmic p65 ratio, rep 1: 1.56; nuclear/cytoplasmic p65 ratio, rep 2: 1.49; low cell count flag: enough cells to score; call: inactive

What is on record for Mrps18b?
p65 translocation robust z-score: -1.16; nuclear/cytoplasmic p65 ratio, rep 1: 1.61; nuclear/cytoplasmic p65 ratio, rep 2: 1.4; low cell count flag: enough cells to score; call: inactive

Which result is listed for Apex2?
p65 translocation robust z-score: 1.6; nuclear/cytoplasmic p65 ratio, rep 1: 1.73; nuclear/cytoplasmic p65 ratio, rep 2: 1.84; low cell count flag: enough cells to score; call: inactive

What is on record for Fam187a?
nuclear/cytoplasmic p65 ratio, rep 1: 1.39; nuclear/cytoplasmic p65 ratio, rep 2: 1.34; low cell count flag: fewer than 50 cells per well; well left out of scoring; call: inactive

Which result is listed for Ceacam14?
p65 translocation robust z-score: 0.31; nuclear/cytoplasmic p65 ratio, rep 1: 1.71; nuclear/cytoplasmic p65 ratio, rep 2: 1.76; low cell count flag: enough cells to score; call: inactive

With 1110006O24Rik, what was measured?
nuclear/cytoplasmic p65 ratio, rep 1: 1.49; nuclear/cytoplasmic p65 ratio, rep 2: 1.34; low cell count flag: fewer than 50 cells per well; well left out of scoring; call: inactive

2 entries from above, set out differently:
gene knocked down | p65 translocation robust z-score | nuclear/cytoplasmic p65 ratio, rep 1 | nuclear/cytoplasmic p65 ratio, rep 2 | low cell count flag | call
Fam187a | – | 1.39 | 1.34 | fewer than 50 cells per well; well left out of scoring | inactive
Ceacam14 | 0.31 | 1.71 | 1.76 | enough cells to score | inactive

The results go on.
What did the screen give for Defb9?
p65 translocation robust z-score: -0.67; nuclear/cytoplasmic p65 ratio, rep 1: 1.5; nuclear/cytoplasmic p65 ratio, rep 2: 1.43; low cell count flag: enough cells to score; call: inactive

For Kcnip2, what does the deposit list?
p65 translocation robust z-score: -1.16; nuclear/cytoplasmic p65 ratio, rep 1: 1.33; nuclear/cytoplasmic p65 ratio, rep 2: 1.32; low cell count flag: enough cells to score; call: inactive

For Mettl24, what does the deposit list?
p65 translocation robust z-score: 0.22; nuclear/cytoplasmic p65 ratio, rep 1: 1.46; nuclear/cytoplasmic p65 ratio, rep 2: 1.57; low cell count flag: enough cells to score; call: inactive

What did the screen give for Ginm1?
p65 translocation robust z-score: 0.56; nuclear/cytoplasmic p65 ratio, rep 1: 1.66; nuclear/cytoplasmic p65 ratio, rep 2: 1.94; low cell count flag: enough cells to score; call: inactive

How did the screen score Egr4?
p65 translocation robust z-score: 0.12; nuclear/cytoplasmic p65 ratio, rep 1: 1.53; nuclear/cytoplasmic p65 ratio, rep 2: 1.34; low cell count flag: enough cells to score; call: inactive

For Lrr1, how do the results read?
p65 translocation robust z-score: -0.33; nuclear/cytoplasmic p65 ratio, rep 1: 1.37; nuclear/cytoplasmic p65 ratio, rep 2: 1.15; low cell count flag: enough cells to score; call: inactive

What did the screen give for Ttyh2?
p65 translocation robust z-score: 0.1; nuclear/cytoplasmic p65 ratio, rep 1: 1.4; nuclear/cytoplasmic p65 ratio, rep 2: 1.14; low cell count flag: enough cells to score; call: inactive

What did the screen give for Etfbkmt?
p65 translocation robust z-score: -1.31; nuclear/cytoplasmic p65 ratio, rep 1: 1.18; nuclear/cytoplasmic p65 ratio, rep 2: 1.06; low cell count flag: enough cells to score; call: inactive

Which result is listed for Slc7a9?
p65 translocation robust z-score: 0.32; nuclear/cytoplasmic p65 ratio, rep 1: 1.54; nuclear/cytoplasmic p65 ratio, rep 2: 1.58; low cell count flag: enough cells to score; call: inactive

With Tuba1a, how do the results read?
p65 translocation robust z-score: -0.87; nuclear/cytoplasmic p65 ratio, rep 1: 1.36; nuclear/cytoplasmic p65 ratio, rep 2: 1.42; low cell count flag: enough cells to score; call: inactive
